Assay results: PubChem BioAssay AID1487 (National Center for Advancing Translational Sciences (NCATS), 2009)
The other results are listed elsewhere or left out. The main result of the screen is listed elsewhere. These columns were measured beside it and carry no call. Compounds called inactive in the main read-out are mostly missing here. Words in brackets tell the shape of the fitted curve; partial curves, single points and poor fits give uncertain potencies.

Test: qHTS Assay for Modulators of Lamin A Splicing
Conditions: HeLa LMNA splicing GFP/RFP minigene ratio, 48 h
Method in brief: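 Read-out is the ratio of GFP to DsRed2 object intensity, acquired by 488 nm laser-scanning cytometry on HeLa lamin A-EGFP minigene reporter cells. Compound incubation 48 hrs at 37 °C in Opti-MEM with 2% FBS; DMSO 0.5% final.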

[1] = measured here: GFP splicing reporter channel
[2] = measured here: RFP viability control channel

COc1cccc2c1[C@@H]1CN(CCCCn3c(=O)[nH]c4c(sc5ncc(-c6ccccc6)nc54)c3=O)C[C@@H]1CO2
AC50 [1]: 15.8 µM [falling, partial curve]
AC50 [2]: 17.8 µM [falling, single point]

O=C(Nc1nnc(-c2ccc3c(c2)CCCC3)o1)c1ccc(Cl)cc1Cl
AC50 [1]: 10 µM [rising, partial curve]
AC50 [2]: 12.6 µM [rising, partial curve]

CSc1nc2ccccc2n1CC(=O)Nc1ccccc1
AC50 [2]: 11.2 µM [rising, partial curve, poor fit]

Cc1nn(-c2ccccc2)c(Cl)c1C1C(C#N)=C(N)OC2=C1C(=O)CC(C)(C)C2 (stereo not given)
AC50 [2]: 15.8 µM [rising, single point]

Cc1ccccc1C(=O)NC1CC2CCC(C1)N2Cc1ccccc1 (stereo not given)
AC50 [1]: 0.501 µM [rising, full curve, poor fit]

COc1ccc(NC(=O)CC2CC3CCC2C3)cn1 (stereo not given)
AC50 [2]: 3.98 µM [rising, single point]

Cc1cc(C(=O)CN2C(=O)NC3(CCCCC3)C2=O)c(C)n1Cc1ccc2c(c1)OCO2
AC50 [1]: 22.4 µM [rising, partial curve]
AC50 [2]: 25.1 µM [rising, partial curve]

C/C(CCc1oc2ccc(Cl)cc2c1-c1ccc(C)o1)=N\O
AC50 [2]: 12.6 µM [rising, single point]

Cc1[nH]c2ccccc2c1C(O)CN1CCN(c2cccc(C(F)(F)F)c2)CC1 (stereo not given)
AC50 [2]: 31.6 µM [rising, single point]

Cc1[nH]c2ccccc2c1C(C[N+](=O)[O-])c1cccs1 (stereo not given)
AC50 [2]: 22.4 µM [rising, single point]

Cc1ccc(C(=O)CSC2=NC(N)=C(C#N)C3(CCCCC3)C2C(N)=O)cc1 (stereo not given)
AC50 [1]: 14.1 µM [rising, single point]

COc1cccc(/C=N/c2oc(-c3ccccc3)cc2C#N)c1O
AC50 [2]: 35.5 µM [rising, single point]

O=C(CN(Cc1ccccc1)S(=O)(=O)c1ccc2c(c1)OCCO2)Nc1ccc2c(c1)OCCO2
AC50 [2]: 22.4 µM [rising, single point]

Cc1ccccc1NC(=O)Nc1ccc2nc(N3CCN(C)CC3)cc(C)c2c1
AC50 [1]: 7.08 µM [falling, full curve, poor fit]

CC(C)CCn1c(CN(C)Cc2ccccc2)nc2c1c(=O)n(C)c(=O)n2C
AC50 [2]: 25.1 µM [rising, partial curve]

CC(=O)Oc1ccc(C)cc1
AC50 [1]: 12.6 µM [falling, partial curve, poor fit]
AC50 [2]: 12.6 µM [falling, single point]

Cc1ccc([N+](=O)[O-])cc1-c1ccc(/C=C(\C#N)c2[nH]nc(N)c2C#N)o1
AC50 [2]: 0.501 µM [rising, full curve, poor fit]

C/C(=N\NC(=O)c1ccc(O)cc1)c1ccc2c(c1)Nc1ccccc1S2
AC50 [1]: 35.5 µM [falling, single point]
AC50 [2]: 25.1 µM [falling, single point]

Cc1ccc(Cl)cc1OCC(=O)NCCOC(=O)Nc1sc(=S)n(C)c1C
AC50 [2]: 20 µM [rising, single point]

CC(C)OC(=O)c1c(NC(=O)CCC(=O)O)sc2c1CCCCC2
AC50 [2]: 14.1 µM [rising, single point]

c1ccc2[nH]c(SCc3ccc(-c4nnco4)cc3)nc2c1
AC50 [1]: 8.91 µM [rising, partial curve]
AC50 [2]: 14.1 µM [rising, single point]

Cc1nc2ccccc2n1CCN1CCOCC1
AC50 [2]: 0.562 µM [falling, full curve]

COc1ccc(N2CCN(CC(=O)Nc3ccc(SC(F)F)cc3)CC2)cc1
AC50 [2]: 15.8 µM [rising, partial curve]

COC(=O)c1sccc1S(=O)(=O)N(CC(=O)NCc1ccccc1)c1ccc(C)c(C)c1
AC50 [1]: 0.0112 µM [falling, full curve, poor fit]
AC50 [2]: 0.00355 µM [falling, full curve, poor fit]

Cc1ccc(-n2c3nc(=O)[nH]c(=O)c-3cc3cc([N+](=O)[O-])ccc32)cc1C
AC50 [1]: 35.5 µM [falling, single point]
AC50 [2]: 0.178 µM [rising, full curve, poor fit]

CSc1nsc(/C=C/Nc2ccc(C)c(C)c2)c1C#N
AC50 [1]: 0.891 µM [falling, full curve, poor fit]

CCn1cc(C(=O)O)c(=O)c2cc(S(=O)(=O)N(C)C)ccc21
AC50 [2]: 5.62 µM [rising, single point]

CCc1ccc(CNC(=O)C2CCCN(c3nn4cc(-c5ccc(F)cc5)nc4s3)C2)cc1 (stereo not given)
AC50 [2]: 35.5 µM [falling, single point]

COc1ccc(C(=O)C2CCCN(S(=O)(=O)c3cccnc3)C2)c(C)c1 (stereo not given)
AC50 [1]: 0.00316 µM [rising, full curve, poor fit]
AC50 [2]: 0.00316 µM [rising, full curve, poor fit]

O=C(COC(=O)CC(c1ccccc1)c1ccccc1)NCc1ccc(Cl)cc1
AC50 [1]: 35.5 µM [rising, single point]
AC50 [2]: 35.5 µM [rising, single point]

O/N=C/c1ccc(OCc2ccccc2)c(Br)c1
AC50 [1]: 4.47 µM [falling, partial curve, poor fit]

CC(=O)c1c(N2CCN(c3ccc(F)cc3)CC2)nc(=S)n(Cc2ccccc2)c1C
AC50 [1]: 10 µM [rising, partial curve, poor fit]
AC50 [2]: 17.8 µM [rising, partial curve]

CCOc1ccc(NC(=S)NCCN2CCN(Cc3ccccc3)CC2)cc1
AC50 [2]: 35.5 µM [falling, single point]

Cc1ccc(-c2nnc(OCCN3CCOCC3)c3ccccc23)cc1
AC50 [2]: 8.91 µM [rising, partial curve, poor fit]

COc1ccccc1/C=C/C=C1\Oc2c(ccc(O)c2CN2CCN(CCO)CC2)C1=O
AC50 [1]: 35.5 µM [rising, single point]

CC1CCN(C(=O)CSc2nc3c([nH]c4ccccc43)c(=O)n2-c2ccccc2)CC1
AC50 [1]: 0.112 µM [rising, full curve, poor fit]
AC50 [2]: 1.78 µM [rising, partial curve, poor fit]

CCOc1ccc(C2=Nn3cnnc3SC2)cc1
AC50 [1]: 20 µM [rising, partial curve, poor fit]

O=C(CN1CCN(c2ccc(Cl)cc2)CC1)Nc1ccc(Cl)c(C(F)(F)F)c1
AC50 [2]: 35.5 µM [rising, single point]

COCc1nnc(NC(=O)c2ccc(S(=O)(=O)N(CC(C)C)CC(C)C)cc2)o1
AC50 [2]: 3.55 µM [rising, single point]

C=C1C(=O)O[C@@H]2[C@@H]1CC/C(C)=C\CC[C@@]1(C)O[C@H]21
AC50 [1]: 0.158 µM [falling, full curve]
AC50 [2]: 0.251 µM [falling, full curve]

NC(=O)c1cnn(-c2ccc3ccccc3c2)c1N
AC50 [1]: 1.41 µM [falling, full curve]
AC50 [2]: 2 µM [falling, full curve, poor fit]

CC1(C)C(=O)Nc2ccccc2N1C(=O)CSc1nc(-c2ccccc2)cs1
AC50 [1]: 11.2 µM [rising, single point]
AC50 [2]: 11.2 µM [rising, partial curve]

COc1ccc(C(=O)CC(Nc2ccc([N+](=O)[O-])cc2)c2ccc(OC)cc2)cc1 (stereo not given)
AC50 [2]: 11.2 µM [rising, partial curve]

Cc1nnc(SC(C)C(=O)Nc2nccs2)s1 (stereo not given)
AC50 [2]: 0.00355 µM [falling, full curve, poor fit]

Cc1cccc(/C=C/C(=O)c2ccc(N3CCOCC3)cc2)c1
AC50 [1]: 0.562 µM [rising, single point]

Cc1ccc(S(=O)(=O)N(C)CCCC(=O)Nc2ccncc2)cc1
AC50 [2]: 12.6 µM [rising, single point]

COCCSc1ccccc1C(=O)Nc1ccccc1C(C)C
AC50 [1]: 35.5 µM [rising, single point]
AC50 [2]: 35.5 µM [rising, single point]

Cc1ccccc1C(=O)N1CCN(c2ccc(NC(=O)c3cccnc3Cl)cc2)CC1
AC50 [1]: 11.2 µM [falling, partial curve, poor fit]
AC50 [2]: 15.8 µM [falling, partial curve, poor fit]

O=C(/C=C\c1ccc2c(c1)OCO2)NC1CC(=O)N(c2ccc(F)cc2)C1 (stereo not given)
AC50 [2]: 14.1 µM [rising, single point]

S=C(NCc1ccco1)Nc1ccccn1
AC50 [1]: 1.12 µM [falling, single point]

CCn1c(SCC(=O)N2CCCc3ccccc32)nc2ccccc2c1=O
AC50 [1]: 17.8 µM [rising, single point]
AC50 [2]: 35.5 µM [rising, single point]

CC(C)(C)c1ccc(C(=O)Nc2cc(-c3ccccc3)nn2-c2ccccc2)cc1
AC50 [1]: 22.4 µM [rising, partial curve, poor fit]
AC50 [2]: 35.5 µM [rising, single point]

CC1CCN(S(=O)(=O)c2cc(C(=O)NCCc3ccccc3)n(C)c2)CC1
AC50 [1]: 4.47 µM [falling, partial curve, poor fit]

CSc1nc(-c2ccccc2)nc(N2CCCC2)c1C(C)=O
AC50 [1]: 8.91 µM [rising, partial curve, poor fit]

CN(C)C(=O)CCCc1nc(-c2ccc(Cl)cc2)no1
AC50 [2]: 17.8 µM [rising, single point]

CCn1c2ccccc2c2nnc(NN)nc21
AC50 [1]: 35.5 µM [falling, single point]
